Source: PubChem BioAssay AID1508600 (Functional Genomics Laboratory (NCATS/FGL), 2020)
Out of some 53,000 sequences screened, about 3,700 (7%) were called active.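 Rule for the calls: active = gene knockdowns whose robust z-score for IL-1 alpha signal is at least 2 or at most -2, so actives lie on both sides; inactive = the rest.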 The list shows a part of the results.

Assay: Components of the Cytosolic LPS Sensing Pathway: Gene Identification via Genome-wide siRNA Screen;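 note: robust z of the log signal after scaling to non-targeting control siRNA wells of the plate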
Conditions: RAW264.7 macrophages, IL-1a HTRF, actives lie on both sides, screened at 100 nM (by protocol), cells primed 5 h with Pam3CSK4 first
Outline: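 Cells (RAW264.7, 1×10^4 per well) were transfected with siRNA at 100 nM and cultured 48h at 37 degrees C. Pam3CSK4 was added for 5 hours; LipidA transfection followed for 24 hour. IL-1a was then measured by HTRF.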

| Sequence | z-score |
| --- | --- |
| GCAGAAACGAUUGUACCAUTT against Ar | inactive: 1.37 |
| GGAGGGAGUAUCCAUGUCATT against Nr2c2 | inactive: 0.209 |
| GGAAAGUCAGCCUUUAGCATT against Prdx3 | inactive: -0.589 |
| GGAUGAAGAUGUGGAUCUGTT against Dcaf11 | inactive: 0.949 |
| CCCUCCAGCACUUGUUACATT against Palb2 | inactive: -0.414 |
| GCACUUCCACGUGUGGAUUTT against Olfr648 | inactive: 0.291 |
| GCUGUGUGAAUACCACUUUTT against Cd2bp2 | inactive: 0.539 |
| CGAAGGGACCGAAGAAUCCTT against Vcpip1 | inactive: -0.86 |
| GGCUUUGAGAUAUGAACAGTT against Arrdc2 | active: 2.53 |
| GGGACUGCAUACUUAAGUUTT against Amacr | inactive: 1.31 |
| GGAUGGCUUGUUUGGACAGTT against Ptprn | inactive: 1.34 |
| GCGAGAGCUUCUGUGAAAATT against Rnase13 | inactive: -0.958 |
| GGUUAAGAAUAACGAAAGGTT against Pdx1 | inactive: -1.15 |
| GGAUCAACUUUGACAAAUATT against Rpl27a | inactive: 0.213 |
| GCUUGCACAAGAUGCUAUATT against Bmt2 | inactive: 0.742 |
| CGAACGGAAAAAUGGAAGUTT against Mrtfb | inactive: 0.784 |
| GGUUCUUACAGCUAUAGAATT against Spo11 | inactive: 0.954 |
| GCAGUUUGGGAGCCCAAUATT against Slc16a13 | inactive: -0.516 |
| GGACUUUGUUGUAAAGCACTT against Asgr2 | inactive: -0.826 |
| GCCAGUAUGCUGUAUGGCUTT against Bcas3 | inactive: -0.712 |
| GGUCAAAGAUGCUAUAAAATT against Olfr993 | inactive: -0.843 |
| GCGGGUAUGAUGGUACCUUTT against Pomt2 | inactive: 1.39 |

Two neighbouring records from above, quoted:

| Sequence | z-score |
| --- | --- |
| GGUCAAAGAUGCUAUAAAATT against Olfr993 | inactive: -0.843 |
| GCGGGUAUGAUGGUACCUUTT against Pomt2 | inactive: 1.39 |

Going on with the list.

| Sequence | z-score |
| --- | --- |
| GGCCAGUCGGAAAAUCUUATT against Atp7b | inactive: 0.753 |
| GGAAAAUGAGAUCAUGCCCTT against Sdf4 | inactive: -0.488 |
| GGAAGUCCUGCCAUUUAUATT against Ranbp2 | inactive: -1.51 |
| GGCCUUCACGUCUGGAAAUTT against Cnot10 | inactive: -0.163 |
| CGAAAAGGUGUGGCCAUCATT against Eif4a3 | inactive: -0.664 |
| GGAAAUCCAACAGCAGAUCTT against Rnf167 | inactive: -0.825 |
| GGGCCUUUUUGAGUACGACTT against Cryaa | inactive: 0.904 |
| GGUUUGUCUCCAUUCUUAUTT against Pnp | inactive: -0.675 |
| GGAAAAAGAGAAUUCGAUATT against Wee1 | inactive: -1.2 |
| GGCUGUCAUCCAAGAACUUTT against Mtcp1 | inactive: 0.176 |
| GGAUUUGGCUAUAAGGGUUTT against Ppia | inactive: 1.39 |
| GGUCUUGGCUGAUUUUAUGTT against Cyp24a1 | inactive: 0.669 |
| GGCAUUAAAGUACAGCAUGTT against Immt | inactive: 0.502 |
| GGGCUUUCCCAGUUCCUAATT against Bmp6 | active: 2.04 |
| GCUGCCACUGGACACAUAATT against 4930591A17Rik | inactive: -0.0198 |
| GGUAGACUGGUCAGAUACATT against Rexo4 | inactive: -1.49 |
| GGCAGUGAUGUUUCUCUCGTT against Tmem198b | inactive: 0.152 |
| GGUAUGAAUCUGGAGAUCATT against Por | inactive: 0.467 |
| GCUAGCAAUUAAAAGAUCGTT against Ppp2r2c | inactive: 0.172 |
| GAGACCUUCACAAAGUUGUTT against Hnrnpll | inactive: 0.599 |
| CGAUGUGACUGGUUUAAGGTT against Wtap | inactive: -1.02 |
| GGACUAAUUGGCCUCUGCUTT against Rpl22l1 | inactive: 0.638 |

2 entries drawn at random from those above:

| Sequence | z-score |
| --- | --- |
| GGUAUGAAUCUGGAGAUCATT against Por | inactive: 0.467 |
| GGAAAAAGAGAAUUCGAUATT against Wee1 | inactive: -1.2 |

Next results

| Sequence | z-score |
| --- | --- |
| CCUAGAAGUCAUUAAGACGTT against Slc25a33 | inactive: -0.514 |
| CCAAAUGUAGCGGAACUGATT against Rsu1 | inactive: 0.195 |
| GGAUUGUUUAUCUGUCUUCTT against Cyp3a44 | inactive: -1.05 |
| GGUACACCUUCCUUCCCUUTT against Mogs | inactive: -1.96 |
| GGAAACAGAACCAAGUUAATT against Thyn1 | inactive: 0.931 |
| GGAGGUGACUAUCAUUUUUTT against Gng4 | inactive: -0.498 |
| CGGGAUUCUUCUCCUUGAATT against Dnal4 | inactive: 0.428 |
| CGUGUAGUGAAAAAUCUUGTT against Sertm1 | inactive: 1.22 |
| CCUAAUGAUGAGAUUAAUGTT against 1810024B03Rik | inactive: 0.541 |
| GGACAUCCAGACAAUGAGGTT against Fam13b | inactive: -1.62 |
| GGACUCUUUUGGACCUAAGTT against Hilpda | inactive: -1.24 |
| GGUGGCUAUUAAAAGUAUUTT against Ulk2 | inactive: 0.581 |
| GGUGAAAAGAGAUUUGAAUTT against Sp4 | inactive: 0.587 |
| CCUAAAAGGGUUUUGCUUCTT against Macroh2a2 | inactive: 0.291 |
| GGAGCAGAAAGAAAUUUCCTT against Gpa33 | inactive: 0.48 |
| CCUUAAUACAACUUGUCCCTT against Dennd4b | inactive: -0.0332 |
| CCAUAUGUGAGACAACACATT against Tas2r136 | inactive: -1.87 |
| GCCAUUGCCUCAUAAUUUATT against Pam16 | inactive: 1.1 |
| GCAAUAGACCGUUAAUGGATT against Tslp | inactive: 0.127 |
| CCUUCGAUAAAUCUCAAAUTT against Stambp | inactive: 1.27 |
| GAAGACCAAGCUUUGUACUTT against Olfr339 | active: 2.28 |
| GGAAAAGGAAUGUGAAUACTT against Celsr2 | inactive: -1.94 |

| Sequence | z-score |
| --- | --- |
| GGAAGAGGAGAAUGUCUUGTT against Traip | inactive: 0.291 |
| CGUAUUAUUGUCAUGCUGUTT against Gpr142 | inactive: 0.493 |
| GCACAUGCCAACUCAUUCUTT against Ergic1 | inactive: 0.541 |
| GCCUCUAUCUGUACUCUGGTT against Pdk2 | inactive: -0.944 |
| GGAGAUGAGCUGUAUGUGATT against Nudt19 | inactive: 0.862 |
| GGAAAAAGAACACCUUUUATT against Ints6l | inactive: -0.74 |
| GUGUCCUGAACCUUGUCCCTT against Sprr2g | inactive: 0.978 |
| GGGAGUCCUACGCAUAUGATT against BC051665 | inactive: -0.928 |
| GGUACAAUGUUCAUACCAATT against Rab9b | inactive: 0.528 |
| GGCUCGUGAGCAUUCACUGTT against Nfrkb | inactive: -0.664 |
| UGGUGCUGCUAUCUAUACCTT against Olfr330 | inactive: 1.01 |
| GCAGCACACUUGGUACAUCTT against Icmt | inactive: 1.88 |
| CCUCAAGGCACUAAUAGAATT against Car7 | inactive: -0.541 |
| GCUGUUUGAUAAAACAAGATT against Snx6 | inactive: 0.758 |
| GUCUGCUCAUCGACAGCUATT against Ripor1 | inactive: -0.829 |
| GGCUUAUCACAGGAAGAUCTT against Atg4c | inactive: -0.597 |
| CCUGUUUUAUGCCACAAUUTT against Tas2r125 | inactive: 0.0722 |
| CCUAUUGUCCUGCUAACAATT against Aldh7a1 | inactive: -0.177 |
| GGAUCAUAGAGCAUCUUGATT against Sectm1a | inactive: 0.0412 |
| GGGAAGAGGAUAGGAUUCGTT against Ntpcr | inactive: 0.156 |
| GGCCUGUACGGAGAUCAAUTT against Dpp7 | inactive: 0.331 |
| GGUUGUGUAUGUGGAAAGUTT against Ppm1j | inactive: 1.57 |

| Sequence | z-score |
| --- | --- |
| GGUGACUGUCCUAUGAUAUTT against Crip2 | inactive: -0.551 |
| GCCCAUCUAGGAUCUAUAUTT against F9 | inactive: -1.58 |
| GGAAGUGUCCAGCAAUUAGTT against Stc2 | inactive: 0.0287 |
| CGUUGCUGAGAACGAGUCGTT against Pomc | inactive: -1.13 |
| GGCCACAAGAUACAUAUAUTT against Bmi1 | inactive: -1.33 |
| AUCAGGGAUCCUAACAUCATT against Ly6c1 | inactive: -1.01 |
| CGUGAAAGAUCAUCUCAGATT against 4933427D14Rik | inactive: -1.7 |
| GGUCUCUGUAGAGAUGGCATT against 6820408C15Rik | active: -2.52 |
| GGUGAUUACUCUUAUGUGATT against Slc7a8 | inactive: -0.663 |
| GGAAUACCAGGCCUUCCUUTT against B4galnt1 | inactive: -0.886 |
| CCUCAUUUAGAUGUCUUGATT against Ran | inactive: -0.0987 |
| GCUCAGACUAGAUUAAUGUTT against Gmeb2 | inactive: -1.17 |
| GGAAGUCUGUCCAAGGUAUTT against Olfr192 | inactive: -1.17 |
| GGCUUAGGGACUAUGAGGATT against Clec4f | inactive: 0.125 |
| GCCAAAUACGUGUAUGACUTT against Sfxn3 | inactive: -1.84 |
| GGAGAACUGAUAAAGCUUUTT against Tas2r105 | inactive: 0.086 |
| GGCUUGUGGAUGAAUUGUATT against Cldn8 | inactive: -0.382 |
| CGCAGGAUAUUUCUAUCCATT against Prl7b1 | inactive: -0.277 |
| GGCUCUAACUGUGAGAAGATT against Dll3 | active: -2.44 |
